# This is one part of the list. The list holds hits alone, and they repeat only in part.
# Chains of the proteins cited; added tags and fusions are not shown.
# MAPK3, P27361, UniProt P27361, whole entry: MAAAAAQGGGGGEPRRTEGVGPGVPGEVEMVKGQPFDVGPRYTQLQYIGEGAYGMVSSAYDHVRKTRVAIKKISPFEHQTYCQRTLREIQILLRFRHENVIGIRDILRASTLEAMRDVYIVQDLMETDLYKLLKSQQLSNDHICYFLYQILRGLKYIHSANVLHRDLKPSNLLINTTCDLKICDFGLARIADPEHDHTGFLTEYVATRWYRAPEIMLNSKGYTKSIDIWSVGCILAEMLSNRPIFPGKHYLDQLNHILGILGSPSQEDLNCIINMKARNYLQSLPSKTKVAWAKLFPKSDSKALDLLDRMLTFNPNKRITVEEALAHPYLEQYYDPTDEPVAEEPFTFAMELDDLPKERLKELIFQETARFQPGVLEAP
# PCBP2, Q15366, UniProt Q15366, whole entry: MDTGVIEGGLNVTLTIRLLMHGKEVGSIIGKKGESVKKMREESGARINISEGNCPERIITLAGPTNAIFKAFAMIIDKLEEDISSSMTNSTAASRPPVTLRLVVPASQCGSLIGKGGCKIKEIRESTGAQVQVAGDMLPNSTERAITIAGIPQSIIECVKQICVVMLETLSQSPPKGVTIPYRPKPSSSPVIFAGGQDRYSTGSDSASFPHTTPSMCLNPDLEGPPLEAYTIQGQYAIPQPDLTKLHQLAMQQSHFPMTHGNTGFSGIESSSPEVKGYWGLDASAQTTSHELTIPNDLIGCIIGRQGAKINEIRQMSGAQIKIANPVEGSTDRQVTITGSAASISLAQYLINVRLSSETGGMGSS
# HIST1H1D, P16402, UniProt P16402, whole entry: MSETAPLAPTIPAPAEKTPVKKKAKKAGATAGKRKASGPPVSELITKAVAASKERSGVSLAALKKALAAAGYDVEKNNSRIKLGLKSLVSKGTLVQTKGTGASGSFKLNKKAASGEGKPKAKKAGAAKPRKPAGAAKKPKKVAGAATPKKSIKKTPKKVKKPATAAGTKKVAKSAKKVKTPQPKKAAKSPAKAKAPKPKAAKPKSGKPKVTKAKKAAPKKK
# MORF4L2, Q15014, UniProt Q15014, whole entry: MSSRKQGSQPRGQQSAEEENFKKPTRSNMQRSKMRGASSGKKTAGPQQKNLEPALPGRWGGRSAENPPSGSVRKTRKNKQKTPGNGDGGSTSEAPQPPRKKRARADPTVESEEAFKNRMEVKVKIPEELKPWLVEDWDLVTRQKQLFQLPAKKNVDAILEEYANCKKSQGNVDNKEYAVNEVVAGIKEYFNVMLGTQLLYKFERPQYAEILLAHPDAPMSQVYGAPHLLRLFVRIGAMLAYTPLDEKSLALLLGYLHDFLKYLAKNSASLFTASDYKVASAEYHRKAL
# ATXN2, Q99700, UniProt Q99700, whole entry: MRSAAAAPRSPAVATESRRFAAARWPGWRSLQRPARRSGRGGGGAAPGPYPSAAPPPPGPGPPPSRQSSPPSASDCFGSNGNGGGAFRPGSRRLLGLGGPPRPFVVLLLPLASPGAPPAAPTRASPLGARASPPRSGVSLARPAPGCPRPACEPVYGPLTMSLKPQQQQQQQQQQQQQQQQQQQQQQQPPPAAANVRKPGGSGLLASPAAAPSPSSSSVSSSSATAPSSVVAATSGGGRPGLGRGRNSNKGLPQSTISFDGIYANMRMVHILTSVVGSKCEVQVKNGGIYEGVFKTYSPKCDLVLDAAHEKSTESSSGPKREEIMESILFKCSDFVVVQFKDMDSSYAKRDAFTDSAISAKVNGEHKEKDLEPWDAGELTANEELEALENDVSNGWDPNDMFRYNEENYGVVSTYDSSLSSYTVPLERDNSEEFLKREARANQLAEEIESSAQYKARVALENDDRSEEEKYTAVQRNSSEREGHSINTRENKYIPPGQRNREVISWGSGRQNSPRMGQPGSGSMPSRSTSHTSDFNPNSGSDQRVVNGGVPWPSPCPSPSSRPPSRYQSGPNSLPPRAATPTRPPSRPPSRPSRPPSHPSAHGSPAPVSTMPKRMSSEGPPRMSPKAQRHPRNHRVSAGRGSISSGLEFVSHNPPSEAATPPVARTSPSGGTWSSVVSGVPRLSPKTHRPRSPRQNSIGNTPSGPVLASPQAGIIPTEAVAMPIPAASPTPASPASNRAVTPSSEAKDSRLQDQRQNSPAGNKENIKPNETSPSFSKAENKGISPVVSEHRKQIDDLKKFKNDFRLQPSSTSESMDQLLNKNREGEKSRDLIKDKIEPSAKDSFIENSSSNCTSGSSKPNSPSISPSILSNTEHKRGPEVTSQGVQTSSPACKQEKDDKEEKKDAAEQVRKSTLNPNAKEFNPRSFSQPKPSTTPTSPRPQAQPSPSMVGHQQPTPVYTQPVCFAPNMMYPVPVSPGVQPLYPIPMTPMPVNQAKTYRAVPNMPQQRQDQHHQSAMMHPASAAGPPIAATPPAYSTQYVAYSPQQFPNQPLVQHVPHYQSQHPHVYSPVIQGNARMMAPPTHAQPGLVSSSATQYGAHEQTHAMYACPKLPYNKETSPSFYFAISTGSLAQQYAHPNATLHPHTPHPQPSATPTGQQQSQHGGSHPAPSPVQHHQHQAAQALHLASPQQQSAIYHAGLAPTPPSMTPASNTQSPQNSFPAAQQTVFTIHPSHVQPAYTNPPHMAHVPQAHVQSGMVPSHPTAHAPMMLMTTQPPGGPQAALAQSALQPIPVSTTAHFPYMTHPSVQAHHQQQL
# VAMP3, Q15836, UniProt Q15836, whole entry: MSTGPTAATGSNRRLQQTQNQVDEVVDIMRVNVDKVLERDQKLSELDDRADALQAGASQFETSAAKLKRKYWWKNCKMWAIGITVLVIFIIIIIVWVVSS
# Columns and labels:
# Test in all cases: PRISMA enrichment of interactor (LFQ) in peptide spot vs all other peptide spots (log2 fold change); higher = stronger / more specific binding of the interactor to the peptide
# [1] = molecular target: ATP6V1F, Q16864
# Method: (§1)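 PRISMA: 15-aa overlapping tiles (offset 8 aa) of 60 microproteins, plus SOS1/GLUT1 control peptides, were spot-synthesized on cellulose membranes in triplicate. Membranes were incubated with benzonase-treated HEK293T lysate, and bound proteins were identified by LC-MS/MS with LFQ. Enrichment is the log2 fold change of each protein in one spot versus all other spots. Only interactors passing the significance cutoff are listed.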
# [2] = molecular target: C19orf25, Q9UFG5
# Method: as §1
# [3] = molecular target: DHX30, Q7L2E3
# Method: as §1
# [4] = molecular target: IPO9, Q96P70
# Method: as §1
# [5] = molecular target: POLR2B, P30876
# Method: as §1
# [6] = molecular target: PRRC2B, Q5JSZ5
# Method: as §1
# [7] = molecular target: PUM1, Q14671
# Method: as §1
# [8] = molecular target: RALY, Q9UKM9
# Method: as §1
# [9] = molecular target: RER1, O15258
# Method: as §1
# [10] = molecular target: SAP18, O00422
# Method: as §1
# [11] = molecular target: BIRC6, Q9NR09
# Method: as §1
# [12] = molecular target: C18orf21, Q32NC0
# Method: as §1
# [13] = molecular target: CDC20, Q12834
# Method: as §1
# [14] = molecular target: CORO7-PAM16
# Method: as §1
# [15] = molecular target: CPSF6, Q16630
# Method: as §1
# [16] = molecular target: DDX41, Q9UJV9
# Method: as §1
# [17] = molecular target: EIF3G, O75821
# Method: as §1
# [18] = molecular target: HMGN4, O00479
# Method: as §1
# [19] = molecular target: HSD17B11, Q8NBQ5
# Method: as §1
# [20] = molecular target: LARP1, Q6PKG0
# Method: as §1
# [21] = molecular target: MAPK3, P27361
# Method: as §1
# [22] = molecular target: MCM5, P33992
# Method: as §1
# [23] = molecular target: NOC3L, Q8WTT2
# Method: as §1
# [24] = molecular target: NUP155, O75694
# Method: as §1
# [25] = substrate: PNN, Q9H307
# Method: as §1
# [26] = molecular target: POLD1, P28340
# Method: as §1
# [27] = molecular target: PSMC1, P62191
# Method: as §1
# [28] = molecular target: RAD18, Q9NS91
# Method: as §1
# [29] = molecular target: RFC4, P35249
# Method: as §1
# [30] = molecular target: SRSF11, Q05519
# Method: as §1
# [31] = molecular target: THADA, Q6YHU6
# Method: as §1
# [32] = molecular target: TRAP1, Q12931
# Method: as §1
# [33] = molecular target: VPS36, Q86VN1
# Method: as §1
# [34] = molecular target: XAB2, Q9HCS7
# Method: as §1
# [35] = molecular target: ZFR, Q96KR1
# Method: as §1
# [36] = molecular target: ATP6V1A, P38606
# Method: as §1
# [37] = molecular target: DHX8, Q14562
# Method: as §1
# [38] = molecular target: ERICH1, Q86X53
# Method: as §1
# [39] = molecular target: MAEA, Q7L5Y9
# Method: as §1
# [40] = molecular target: NAP1L1, P55209
# Method: as §1
# [41] = molecular target: PCBP2, Q15366
# Method: as §1
# [42] = molecular target: PSMD14, O00487
# Method: as §1
# [43] = molecular target: ATP6V0D1, P61421
# Method: as §1
# [44] = molecular target: C19orf53, Q9UNZ5
# Method: as §1
# [45] = molecular target: CEBPZ, Q03701
# Method: as §1
# [46] = molecular target: CYP51A1, Q16850
# Method: as §1
# [47] = molecular target: EIF3I, Q13347
# Method: as §1
# [48] = molecular target: EIF6, P56537
# Method: as §1
# [49] = molecular target: HIST1H1C, P16403
# Method: as §1
# [50] = molecular target: HIST1H1D, P16402
# Method: as §1
# [51] = molecular target: MORF4L2, Q15014
# Method: as §1
# [52] = molecular target: RRS1, Q15050
# Method: as §1
# [53] = molecular target: SFXN2, Q96NB2
# Method: as §1
# [54] = molecular target: UPF1, Q92900
# Method: as §1
# [55] = molecular target: ZNF280C, Q8ND82
# Method: as §1
# [56] = molecular target: ATP6V1H, Q9UI12
# Method: as §1
# [57] = molecular target: MCM3, P25205
# Method: as §1
# [58] = molecular target: METTL15, A6NJ78
# Method: as §1
# [59] = molecular target: POLE, Q07864
# Method: as §1
# [60] = molecular target: POP1, Q99575
# Method: as §1
# [61] = molecular target: UTP15, Q8TED0
# Method: as §1
# [62] = molecular target: AURKAIP1, Q9NWT8
# Method: as §1
# [63] = molecular target: DNAJB4, Q9UDY4
# Method: as §1
# [64] = molecular target: EIF3B, P55884
# Method: as §1
# [65] = molecular target: MAPK1, P28482
# Method: as §1
# [66] = molecular target: MEPCE, Q7L2J0
# Method: as §1
# [67] = molecular target: PDCD11, Q14690
# Method: as §1
# [68] = molecular target: PHB2, Q99623
# Method: as §1
# [69] = molecular target: RANBP2, P49792
# Method: as §1
# [70] = molecular target: SAE1, Q9UBE0
# Method: as §1
# [71] = molecular target: ATXN2, Q99700
# Method: as §1
# [72] = molecular target: BCAP31, P51572
# Method: as §1
# [73] = molecular target: CSRP2, Q16527
# Method: as §1
# [74] = molecular target: FCF1, Q9Y324
# Method: as §1
# [75] = molecular target: HIST1H1E, P10412
# Method: as §1
# [76] = molecular target: HP1BP3, Q5SSJ5
# Method: as §1
# [77] = molecular target: IMPDH2, P12268
# Method: as §1
# [78] = molecular target: LRRC41, Q15345
# Method: as §1
# [79] = molecular target: MRPS31, Q92665
# Method: as §1
# [80] = molecular target: NME4, O00746
# Method: as §1
# [81] = molecular target: PRPF4B
# Method: as §1
# [82] = molecular target: PRPS2, P11908
# Method: as §1
# [83] = molecular target: PSMC5, P62195
# Method: as §1
# [84] = molecular target: SYNE2, Q8WXH0
# Method: as §1
# [85] = molecular target: TAF15, Q92804
# Method: as §1
# [86] = molecular target: TEX264, Q9Y6I9
# Method: as §1
# [87] = molecular target: VAMP3, Q15836
# Method: as §1
# [88] = molecular target: YIF1A, O95070
# Method: as §1
binder,measurement,setting,value
ETCVYQMERRAMGIL [RP11-12K22.1],PRISMA enrichment of interactor (log2),[1],4.32
same,PRISMA enrichment of interactor (log2),[2],4.57
same,PRISMA enrichment of interactor (log2),[3],4.67
same,PRISMA enrichment of interactor (log2),[4],4.71
same,PRISMA enrichment of interactor (log2),[5],6.06
same,PRISMA enrichment of interactor (log2),[6],7.15
same,PRISMA enrichment of interactor (log2),[7],4.94
same,PRISMA enrichment of interactor (log2),[8],4.93
same,PRISMA enrichment of interactor (log2),[9],5.89
same,PRISMA enrichment of interactor (log2),[10],6.14
SGAALETLKFTSMRG [SNHG8],PRISMA enrichment of interactor (log2),[1],6.3
same,PRISMA enrichment of interactor (log2),[11],4.15
same,PRISMA enrichment of interactor (log2),[12],3.97
same,PRISMA enrichment of interactor (log2),[13],4.82
same,PRISMA enrichment of interactor (log2),[14],4.07
same,PRISMA enrichment of interactor (log2),[15],5.83
same,PRISMA enrichment of interactor (log2),[16],6.17
same,PRISMA enrichment of interactor (log2),[17],7.21
same,PRISMA enrichment of interactor (log2),[18],4.84
same,PRISMA enrichment of interactor (log2),[19],4.4
same,PRISMA enrichment of interactor (log2),[20],5.12
same,PRISMA enrichment of interactor (log2),[21],11.1
same,PRISMA enrichment of interactor (log2),[22],6.61
same,PRISMA enrichment of interactor (log2),[23],4.44
same,PRISMA enrichment of interactor (log2),[24],4.43
same,PRISMA enrichment of interactor (log2),[25],5.01
same,PRISMA enrichment of interactor (log2),[26],5.68
same,PRISMA enrichment of interactor (log2),[27],4.56
same,PRISMA enrichment of interactor (log2),[28],6.28
same,PRISMA enrichment of interactor (log2),[29],4.58
same,PRISMA enrichment of interactor (log2),[30],4.43
same,PRISMA enrichment of interactor (log2),[31],4.16
same,PRISMA enrichment of interactor (log2),[32],7.22
same,PRISMA enrichment of interactor (log2),[33],5.59
same,PRISMA enrichment of interactor (log2),[34],5.32
same,PRISMA enrichment of interactor (log2),[35],6.43
KAAFLREICVTLLPS [EBAG9],PRISMA enrichment of interactor (log2),[36],6.16
same,PRISMA enrichment of interactor (log2),[37],6.4
same,PRISMA enrichment of interactor (log2),[38],4.74
same,PRISMA enrichment of interactor (log2),[39],5.43
same,PRISMA enrichment of interactor (log2),[40],7.3
same,PRISMA enrichment of interactor (log2),[41],3.97
same,PRISMA enrichment of interactor (log2),[42],4.72
EHGEQSQAFSDDGAV [SNHG16],PRISMA enrichment of interactor (log2),[43],5.49
same,PRISMA enrichment of interactor (log2),[44],8.35
same,PRISMA enrichment of interactor (log2),[45],4.81
same,PRISMA enrichment of interactor (log2),[46],4.02
same,PRISMA enrichment of interactor (log2),[47],4.86
same,PRISMA enrichment of interactor (log2),[48],5.32
same,PRISMA enrichment of interactor (log2),[49],4.55
same,PRISMA enrichment of interactor (log2),[50],5.74
same,PRISMA enrichment of interactor (log2),[18],4.63
same,PRISMA enrichment of interactor (log2),[20],5.31
same,PRISMA enrichment of interactor (log2),[51],5.27
same,PRISMA enrichment of interactor (log2),[52],5.46
same,PRISMA enrichment of interactor (log2),[53],6.8
same,PRISMA enrichment of interactor (log2),[54],4.54
same,PRISMA enrichment of interactor (log2),[55],4.67
KQRVLFVEKKKIRSL [MRPL33],PRISMA enrichment of interactor (log2),[56],6.7
same,PRISMA enrichment of interactor (log2),[57],6.98
same,PRISMA enrichment of interactor (log2),[58],3.92
same,PRISMA enrichment of interactor (log2),[59],4.35
same,PRISMA enrichment of interactor (log2),[60],7.24
same,PRISMA enrichment of interactor (log2),[61],5.45
GWPTASGWTPAARAC [THAP7],PRISMA enrichment of interactor (log2),[62],4.23
same,PRISMA enrichment of interactor (log2),[63],6.15
same,PRISMA enrichment of interactor (log2),[64],4.5
same,PRISMA enrichment of interactor (log2),[65],4.62
same,PRISMA enrichment of interactor (log2),[66],4.36
same,PRISMA enrichment of interactor (log2),[67],4.96
same,PRISMA enrichment of interactor (log2),[68],4.66
same,PRISMA enrichment of interactor (log2),[69],5.55
same,PRISMA enrichment of interactor (log2),[70],4.1
GEGRRMQRPPAWSAG [C5orf56],PRISMA enrichment of interactor (log2),[71],4.74
same,PRISMA enrichment of interactor (log2),[72],4.54
same,PRISMA enrichment of interactor (log2),[73],5.19
same,PRISMA enrichment of interactor (log2),[74],4.23
same,PRISMA enrichment of interactor (log2),[75],7.2
same,PRISMA enrichment of interactor (log2),[76],6.77
same,PRISMA enrichment of interactor (log2),[77],5.22
same,PRISMA enrichment of interactor (log2),[78],4.32
same,PRISMA enrichment of interactor (log2),[79],4.86
same,PRISMA enrichment of interactor (log2),[80],4.69
same,PRISMA enrichment of interactor (log2),[81],5.21
same,PRISMA enrichment of interactor (log2),[82],7.96
same,PRISMA enrichment of interactor (log2),[83],6.07
same,PRISMA enrichment of interactor (log2),[84],5.94
same,PRISMA enrichment of interactor (log2),[85],4.65
same,PRISMA enrichment of interactor (log2),[86],7.74
same,PRISMA enrichment of interactor (log2),[87],5.93
same,PRISMA enrichment of interactor (log2),[88],3.88

# Quoted at random: 2 entries already listed
binder,measurement,setting,value
GWPTASGWTPAARAC [THAP7],PRISMA enrichment of interactor (log2),[66],4.36
same,PRISMA enrichment of interactor (log2),[63],6.15

# Reformatted: entries from further up.
binder | measurement | setting | value
EHGEQSQAFSDDGAV [SNHG16] | PRISMA enrichment of interactor (log2) | [49] | 4.55
same | PRISMA enrichment of interactor (log2) | [50] | 5.74

# From the supplement of paper PMC10032668
